Source: PubChem BioAssay AID1487 (National Center for Advancing Translational Sciences (NCATS), 2009)
Some of the results follow. Further columns of the screen follow, without active or inactive calls. Most of these compounds were active or inconclusive in the main read-out, so they are no random draw. Words in brackets tell the shape of the fitted curve; partial curves, single points and poor fits give uncertain potencies.

Assay: qHTS Assay for Modulators of Lamin A Splicing
Settings: HeLa LMNA splicing GFP/RFP minigene ratio, 48 h
Method in brief: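 Read-out is the ratio of GFP to DsRed2 object intensity, acquired by 488 nm laser-scanning cytometry on HeLa lamin A-EGFP minigene reporter cells. Compound incubation 48 hrs at 37 °C in Opti-MEM with 2% FBS; DMSO 0.5% final.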

[1] = measured here: GFP splicing reporter channel
[2] = measured here: RFP viability control channel

Row | SMILES | AC50 [1] | AC50 [2]
1 | CN(c1ccccc1)S(=O)(=O)c1cc(C(=O)OCC(=O)N2CCN(C(=O)c3ccco3)CC2)ccc1Cl | 0.0355 µM [falling, full curve, poor fit] | –
2 | Cc1ccc(C)c(N2CCN(S(=O)(=O)c3ccc(C(=O)N(C)C)s3)CC2)c1 | 0.00316 µM [falling, full curve, poor fit] | –
3 | CCC(C)(C)C1CCc2c(sc(N)c2C(N)=O)C1 (centres undefined) | – | 25.1 µM [rising, single point]
4 | CCC(=O)N1CCN(c2nc3ccccc3s2)CC1 | 12.6 µM [rising, partial curve, poor fit] | 14.1 µM [rising, partial curve]
5 | Nc1nc2ccc(C(=O)NC3CCCCC3)cc2s1 | – | 10 µM [rising, partial curve, poor fit]
6 | Clc1ccc(CN(Cc2ccccc2)C(c2cccs2)c2nnnn2C2CCCC2)cc1 (centres undefined) | 14.1 µM [rising, partial curve] | 31.6 µM [rising, single point]
7 | COC(=O)c1c(NC(=O)CSc2nnc(-c3ccco3)n2Cc2ccccc2)sc(C)c1C | 20 µM [rising, single point] | –
8 | COc1ccc(-c2nsc3c(N4CCN(C(=O)c5ccco5)CC4)ncnc23)cc1 | 14.1 µM [falling, single point] | 15.8 µM [falling, single point]
9 | CCCOc1ccc(CC(=O)NNC(=S)Nc2ccccc2)cc1Br | 35.5 µM [rising, single point] | 35.5 µM [rising, single point]
10 | CC(=O)c1cccc(NC(=O)CN2C(=O)CC(c3ccc(C)cc3C)=Nc3ccccc32)c1 | 0.282 µM [rising, full curve] | 0.447 µM [rising, full curve]
11 | Cc1nn(C(=O)CCCn2cc([N+](=O)[O-])cn2)c(C)c1Cl | 0.891 µM [rising, full curve, poor fit] | –
12 | CCCCN(CC)CCCNC(=O)c1cn(CC)c2ccc(S(=O)(=O)N3CCc4ccccc4C3)cc2c1=O | – | 0.316 µM [rising, full curve, poor fit]
13 | COc1cccc(-c2nnc(NC(=O)c3ccc4ncsc4c3)o2)c1 | – | 8.91 µM [rising, partial curve]
14 | CCOC(=O)CNC(=S)n1cnc(N)n1 | – | 35.5 µM [falling, single point]
15 | CC(=O)Nc1cc[n+](C(C)C(=O)c2ccc(Br)cc2)cc1 (centres undefined) | – | 12.6 µM [falling, single point]
16 | O=C(Nc1ccc(Br)cc1)Nc1ccccc1Cl | – | 0.224 µM [falling, full curve]
17 | CCCC1N=C2c3ccccc3N=C(SCC(=O)NCCc3ccc(Cl)cc3)N2C1=O (centres undefined) | – | 31.6 µM [falling, single point]
18 | CC[N+]1=C(C)C(C)(C)c2cc(C)ccc21 | 20 µM [falling, partial curve, poor fit] | 14.1 µM [rising, single point]
19 | COC(=O)C1=C(C)N(CCc2ccccc2)C(=O)/C1=C\c1ccco1 | – | 12.6 µM [rising, single point]
20 | COc1cc(/C=N/NC(=O)CCn2c3ccccc3c3ccccc32)ccc1O | – | 12.6 µM [rising, single point]
21 | O=C(O)c1ccc(/C=N/NC(=O)c2cc(-c3ccc4c5c(cccc35)CC4)n[nH]2)cc1 | – | 35.5 µM [rising, single point]
22 | CCOC(=O)C(=Cc1ccccc1OC)C(=O)OCC | – | 35.5 µM [falling, single point]
23 | CCCOC(=O)CSc1nnc(-c2ccccc2)o1 | 0.0251 µM [falling, full curve, poor fit] | 0.01 µM [falling, full curve]
24 | Cc1ccccc1N1CC(c2nnc(NC(=O)c3ccco3)s2)CC1=O (centres undefined) | 0.316 µM [falling, full curve, poor fit] | –
25 | CC(=O)Nc1ccc(NC(=O)Cn2nc([N+](=O)[O-])c(Br)c2C)cc1 | 0.00447 µM [falling, full curve, poor fit] | –
26 | O=C(NCCSCc1ccccc1)c1ccc(Cl)c(S(=O)(=O)N2CCOCC2)c1 | 10 µM [rising, partial curve, poor fit] | 15.8 µM [rising, partial curve]
27 | C[C@H]1CC2[C@@H]3CCC4=CC(=O)C=C[C@]4(C)[C@@]3(Cl)[C@@H](O)C[C@]2(C)[C@@]1(O)C(=O)CO (some centres undefined) | 0.00562 µM [falling, full curve, poor fit] | 0.00447 µM [falling, full curve, poor fit]

Row | SMILES | AC50 [1] | AC50 [2]
28 | O=C(COC(=O)c1ccc(F)cc1F)Nc1ncccn1 | 0.282 µM [rising, full curve, poor fit] | –
29 | CCOc1ccc(OCC(=O)NCCS(=O)(=O)N2CCN(c3cccc(Cl)c3)CC2)cc1 | 2.51 µM [falling, full curve, poor fit] | 1.41 µM [falling, full curve, poor fit]
30 | COc1ccc(C(O)c2nccc3cc(OC)c(OC)cc23)cc1OC (centres undefined) | 0.00891 µM [falling, full curve, poor fit] | –
31 | O=C(COc1ccccc1-c1ccccc1)N/N=C/c1ccc2ccccc2c1 | – | 0.794 µM [rising, full curve]
32 | O=[N+]([O-])c1ccc(COc2ccccc2/C=N/O)cc1 | 12.6 µM [rising, single point] | 31.6 µM [rising, single point]
33 | CCC(C)c1ccc(NC(=O)C2CCN(c3ccc(C(F)(F)F)cn3)CC2)cc1 (centres undefined) | – | 11.2 µM [rising, partial curve, poor fit]
34 | Cn1c(=NC(=O)C2CCN(S(=O)(=O)c3cccs3)CC2)sc2ccccc21 | 4.47 µM [rising, partial curve] | 2.82 µM [rising, full curve]
35 | C=CCSc1nnc(CSc2nc3sc4c(c3c(=O)[nH]2)CCCC4)n1-c1ccccc1 | 15.8 µM [rising, single point] | 10 µM [rising, partial curve]
36 | CCn1c2ccccc2c2cc(NC(=O)COC(=O)c3ccccc3O)ccc21 | 15.8 µM [falling, partial curve, poor fit] | 11.2 µM [falling, partial curve]
37 | COC(=O)CSc1nnc(CNC(=O)c2cc(OC)cc(OC)c2)n1-c1ccc(F)cc1 | 0.0398 µM [falling, full curve, poor fit] | 0.00316 µM [falling, full curve, poor fit]
38 | CCCNC(=O)N1CCN(c2nc(C(C)C)c3c(c2C#N)CC(C)(C)OC3)CC1 | – | 6.31 µM [rising, partial curve]
39 | Cc1ccc(Sc2ncccc2COC(=O)Nc2c(C)cccc2C)cc1 | 35.5 µM [rising, single point] | 35.5 µM [rising, single point]
40 | CC1CCN(C(=O)c2cc3nc(-c4ccccc4)cc(-c4ccccc4)n3n2)CC1 | – | 22.4 µM [rising, single point]
41 | Cc1ccc(NC(=O)CN(C)CC(=O)Nc2ccccc2C#N)cc1 | – | 15.8 µM [falling, single point]
42 | O=C(COC(=O)c1cc2c(s1)CCC2)Nc1ccc(F)cc1 | – | 0.126 µM [falling, full curve]
43 | Cc1ccccc1NS(=O)(=O)c1ccc(N2CCCC2=O)cc1 | 17.8 µM [rising, single point] | 10 µM [rising, partial curve]
44 | C=C1C[C@@]23C[C@]1(O)CC[C@@H]2[C@]12C=C[C@@H](O)[C@](C)(C(=O)O1)[C@H]2[C@H]3C(=O)O | 3.16 µM [falling, single point] | 3.16 µM [falling, single point]
45 | Nc1nc(CN2CCN(c3ccccc3)CC2)nc(Nc2ccc(Cl)cc2)n1 | 22.4 µM [rising, partial curve, poor fit] | –
46 | Cn1cc(Br)c(C(=O)NNC(=O)Nc2ccccc2C(F)(F)F)n1 | – | 1.12 µM [falling, full curve, poor fit]
47 | CCCCNC(=O)CCC(=O)Nc1ccc2nc(N3CCC(C)CC3)cc(C)c2c1 | 11.2 µM [falling, single point] | –
48 | Cc1nn(Cc2ccc(Cl)cc2Cl)c(C)c1NC(=O)C1C2CCC(O2)C1C(=O)O (centres undefined) | – | 14.1 µM [rising, partial curve]
49 | O=C(/C=C/c1ccccc1)NCCc1ccc2c(c1)OCCO2 | – | 0.224 µM [rising, full curve, poor fit]
50 | CCCOc1ccc(C(=O)N2CCC(c3nc4ccccc4s3)CC2)cc1 | 10 µM [falling, partial curve, poor fit] | –
51 | COc1ccc(C(=O)N2CCCC(CCC(=O)NCc3ccc(F)c(F)c3)C2)cc1F (centres undefined) | 7.94 µM [falling, partial curve, poor fit] | 8.91 µM [falling, full curve, poor fit]
52 | CCCCc1nc2ccccc2c(N)c1CCC (tested in a mixture with another compound) | – | 14.1 µM [rising, partial curve, poor fit]
53 | CCOC(=O)C1(CCOc2ccccc2)CCN(Cc2ccc(CO)o2)CC1 | 35.5 µM [falling, single point] | 12.6 µM [falling, single point]
54 | N#Cc1c(N2CCN(C(=O)c3ccco3)CC2)nc(-c2ccccc2)c2c1CCCC2 | – | 22.4 µM [rising, single point]

Four structures from above, ordered by SMILES length, ascending:
Row | SMILES | AC50 [1] | AC50 [2]
49 | O=C(/C=C/c1ccccc1)NCCc1ccc2c(c1)OCCO2 | – | 0.224 µM [rising, full curve, poor fit]
39 | Cc1ccc(Sc2ncccc2COC(=O)Nc2c(C)cccc2C)cc1 | 35.5 µM [rising, single point] | 35.5 µM [rising, single point]
46 | Cn1cc(Br)c(C(=O)NNC(=O)Nc2ccccc2C(F)(F)F)n1 | – | 1.12 µM [falling, full curve, poor fit]
37 | COC(=O)CSc1nnc(CNC(=O)c2cc(OC)cc(OC)c2)n1-c1ccc(F)cc1 | 0.0398 µM [falling, full curve, poor fit] | 0.00316 µM [falling, full curve, poor fit]
